Results: article PMC4811514, “MULTIMERIN2 binds VEGF-A primarily via the carbohydrate chains exerting an angiostatic function and impairing tumor growth” (Oncotarget, 2015)

Experiments:
Assay in all cases: ELISA; solid phase: 0.5 μg of recombinant MMRN2 or deletion mutants coated on the plate, blocked with 2% BSA in PBS; soluble VEGF-A (100 ng/well) or other cytokines in 0,2% BSA in PBS for 1 hour at 37°C; detected with specific anti-cytokine antibodies, ABTS, absorbance at 405 nm; both purified
[1] = target: T1, MMRN2 Δ4 deletion mutant (UniProt Q9H8L6)
T1 sequence: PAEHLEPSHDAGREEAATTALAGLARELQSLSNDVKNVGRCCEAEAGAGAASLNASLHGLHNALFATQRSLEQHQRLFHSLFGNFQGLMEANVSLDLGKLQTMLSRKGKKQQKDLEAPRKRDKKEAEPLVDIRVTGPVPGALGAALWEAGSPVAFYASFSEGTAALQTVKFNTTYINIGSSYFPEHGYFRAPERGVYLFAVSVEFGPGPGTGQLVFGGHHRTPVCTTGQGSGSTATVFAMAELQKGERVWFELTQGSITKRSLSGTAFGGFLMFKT

[2] = target: T2, MMRN2 Δ2 deletion mutant (UniProt Q9H8L6)
T2 sequence (chain, glycosylated (carbohydrate chains)): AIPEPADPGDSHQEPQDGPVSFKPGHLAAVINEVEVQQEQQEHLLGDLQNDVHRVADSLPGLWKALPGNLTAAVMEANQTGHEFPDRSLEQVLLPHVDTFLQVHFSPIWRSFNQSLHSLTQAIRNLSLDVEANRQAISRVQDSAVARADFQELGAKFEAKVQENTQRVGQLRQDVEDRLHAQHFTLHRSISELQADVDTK

[3] = target: T3, MMRN2 Δ3 deletion mutant (UniProt Q9H8L6)
T3 sequence: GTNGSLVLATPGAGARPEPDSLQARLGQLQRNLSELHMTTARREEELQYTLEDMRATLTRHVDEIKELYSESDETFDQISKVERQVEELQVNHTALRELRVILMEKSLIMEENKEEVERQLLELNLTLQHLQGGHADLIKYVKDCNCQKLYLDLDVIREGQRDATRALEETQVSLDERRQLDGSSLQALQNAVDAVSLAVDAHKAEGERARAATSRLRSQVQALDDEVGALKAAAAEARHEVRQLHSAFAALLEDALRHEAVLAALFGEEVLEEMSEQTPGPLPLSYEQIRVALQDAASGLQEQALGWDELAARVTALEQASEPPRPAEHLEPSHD

[4] = target: T4, MMRN2 Δ1 deletion mutant (UniProt Q9H8L6)
T4 sequence: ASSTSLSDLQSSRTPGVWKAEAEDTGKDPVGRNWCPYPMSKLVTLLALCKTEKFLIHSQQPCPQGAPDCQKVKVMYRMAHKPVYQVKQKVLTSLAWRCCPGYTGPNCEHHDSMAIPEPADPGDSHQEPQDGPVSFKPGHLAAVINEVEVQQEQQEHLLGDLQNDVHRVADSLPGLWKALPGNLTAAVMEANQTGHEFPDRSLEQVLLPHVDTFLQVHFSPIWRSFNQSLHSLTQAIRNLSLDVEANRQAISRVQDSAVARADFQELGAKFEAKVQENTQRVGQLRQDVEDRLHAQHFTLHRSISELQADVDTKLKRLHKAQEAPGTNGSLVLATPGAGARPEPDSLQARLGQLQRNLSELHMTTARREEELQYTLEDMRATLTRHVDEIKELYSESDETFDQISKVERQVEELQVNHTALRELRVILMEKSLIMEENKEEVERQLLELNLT

[5] = target: T5, MMRN2 Δ2 deletion mutant produced in the presence of tunicamycin (UniProt Q9H8L6)
T5 sequence (chain, N-linked glycosylation prevented by tunicamycin): T2 sequence (chain, glycosylated (carbohydrate chains))

VEGF-A165 (human) (ligand)
binding [1]: no binding (tested: 100 ng/well) | binding [2]: binds | binding [3]: no binding (tested: 100 ng/well) | binding [4]: binds | binding [5]: no binding (tested: 100 ng/well)

Results are given in words; binding and its absence hold for the method and conditions named. For some assays here: Binding can be weak; no strength is given. For some assays here: Where a sequence is shown, tags or fusion partners need not be part of it.
